{
  "source": "paper PMC3476979",
  "target": "wild-type Tax protein of Human T-lymphotropic virus type 1 (HTLV-1), C-terminal 6His tag (Tax-His) (Human T-lymphotropic virus type 1 (HTLV-1)) (UniProt P03409)",
  "assay": "co-IP; HeLa cells transfected with Tax-His constructs, 24 h; lysis in 50 mM Tris-HCl pH8, 1% NP40, 0.5% deoxycholate, 0.1% SDS, 150 mM NaCl; IP with the anti-Tax mab overnight at 4°C, protein G-sepharose; blot with anti-NEMO",
  "note": "Results are given in words; binding and its absence hold for the method and conditions named. In cells and extracts the contact can be indirect. Some results given as binding are weak or reduced against the parent protein; the word gives no strength.",
  "data": [
    {"substance": "NF-κB essential modulator (NEMO)/IKKγ, endogenous (from UniProt Q9Y6K9 1-419)", "values": [
      {"measurement": "binding", "value": "binds"}
    ]}
  ]
}
